Test results published in paper PMC1820849.
Results are given in words; binding and its absence hold for the method and conditions named. In cells and extracts the contact can be indirect. Binding can be weak; no strength is given.

By UniProt entry, the sequences of proteins in these tests, tags left out. Where a name states a change or a piece, a line headed by the entry shows the natural chain unless it says otherwise.
UniProt Q9EQH4: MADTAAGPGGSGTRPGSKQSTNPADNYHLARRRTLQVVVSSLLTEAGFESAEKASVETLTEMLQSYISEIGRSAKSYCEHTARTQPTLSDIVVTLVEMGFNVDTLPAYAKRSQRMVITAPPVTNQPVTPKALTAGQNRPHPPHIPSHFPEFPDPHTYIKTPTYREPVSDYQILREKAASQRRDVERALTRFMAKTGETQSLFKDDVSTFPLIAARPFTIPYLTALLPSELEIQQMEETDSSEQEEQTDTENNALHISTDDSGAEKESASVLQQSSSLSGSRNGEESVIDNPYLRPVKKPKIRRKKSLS
UniProt O94864: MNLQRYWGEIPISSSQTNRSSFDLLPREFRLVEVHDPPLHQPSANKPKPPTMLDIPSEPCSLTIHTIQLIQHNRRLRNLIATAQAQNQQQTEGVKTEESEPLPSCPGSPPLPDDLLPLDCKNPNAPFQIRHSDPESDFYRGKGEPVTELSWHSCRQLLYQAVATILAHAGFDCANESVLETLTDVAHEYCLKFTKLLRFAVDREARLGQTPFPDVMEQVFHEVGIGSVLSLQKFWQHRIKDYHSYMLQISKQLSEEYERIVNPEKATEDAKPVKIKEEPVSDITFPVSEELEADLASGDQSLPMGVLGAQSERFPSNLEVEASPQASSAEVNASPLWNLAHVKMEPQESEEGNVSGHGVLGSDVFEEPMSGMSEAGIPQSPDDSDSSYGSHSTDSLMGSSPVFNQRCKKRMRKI
UniProt Q12962: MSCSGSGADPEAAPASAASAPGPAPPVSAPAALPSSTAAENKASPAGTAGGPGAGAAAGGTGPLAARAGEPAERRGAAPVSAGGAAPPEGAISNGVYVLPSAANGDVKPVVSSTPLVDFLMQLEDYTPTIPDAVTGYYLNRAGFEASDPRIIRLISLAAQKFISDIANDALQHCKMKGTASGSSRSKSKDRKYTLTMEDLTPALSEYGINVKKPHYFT

Biological target: GST-TAF8 C-terminal half lacking the HF (mouse) (UniProt Q9EQH4)
Assay: pull-down; GST fusion from E. coli on glutathione sepharose beads, incubated with Sf9 whole cell extract overexpressing the partner, 2 h at 4°C; washes with IP buffer with 500 mM KCl, then 100 mM KCl; western blot; only the target purified

binding	Substance
binds	Flag-SPT7L (from UniProt O94864 1-414)
no binding	TAF10 (from UniProt Q12962 1-218)
